Reference: US7956084B2, “Phenyl thiophene carboxamide compounds as inhibitors of the enzyme IKK-2” (AstraZeneca AB, priority 2001, dated 2011)
Some entries share one result that the patent states for a list of compounds.

Target: T1, IKK-2 (Homo sapiens, UniProt O14920)
T1 sequence (O14920 1-756): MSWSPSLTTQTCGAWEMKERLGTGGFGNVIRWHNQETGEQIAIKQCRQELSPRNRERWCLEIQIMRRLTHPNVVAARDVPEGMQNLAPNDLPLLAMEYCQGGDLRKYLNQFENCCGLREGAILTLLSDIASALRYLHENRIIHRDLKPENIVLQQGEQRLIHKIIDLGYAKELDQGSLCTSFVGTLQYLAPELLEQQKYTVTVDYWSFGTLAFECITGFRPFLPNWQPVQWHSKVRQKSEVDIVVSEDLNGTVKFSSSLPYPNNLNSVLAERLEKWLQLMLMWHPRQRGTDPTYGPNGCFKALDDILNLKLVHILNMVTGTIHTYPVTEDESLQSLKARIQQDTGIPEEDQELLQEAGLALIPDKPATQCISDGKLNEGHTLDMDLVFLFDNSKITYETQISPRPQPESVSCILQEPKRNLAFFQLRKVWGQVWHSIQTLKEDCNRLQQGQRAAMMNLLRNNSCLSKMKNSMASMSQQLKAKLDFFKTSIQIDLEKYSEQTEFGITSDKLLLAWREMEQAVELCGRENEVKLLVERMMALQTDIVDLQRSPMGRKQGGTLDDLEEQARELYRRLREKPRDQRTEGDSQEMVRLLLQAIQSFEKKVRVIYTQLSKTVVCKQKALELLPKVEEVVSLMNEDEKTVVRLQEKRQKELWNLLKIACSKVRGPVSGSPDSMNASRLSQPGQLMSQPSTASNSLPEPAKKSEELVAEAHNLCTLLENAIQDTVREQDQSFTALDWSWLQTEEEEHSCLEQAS
Experiment: IKK-2 Filter Kinase Assay
Format: biochemical

## 2-[(Aminocarbonyl)amino]-5-{3-[6-(4,4-difluoropiperidin-1-yl)pyridine}-3-thiophenecarboxamide [Example 23]
  IC50: < 10 µM
